± gives the uncertainty stated by the source. The uncertainty is large for many entries.
Experiment: self-splicing fitness, log relative to wild type (ln ratio); higher = more splicing; Tetrahymena group I intron in knt gene, E. coli kanamycin selection, DiMSum; sequences stand for … in CUCUCU…GGAGGGAAAAGUUAUCAGGCAUGCACCUGGUAGCUAGUCUUUAAACCAAUAGAUUGCAUCGGUUUAAAAGGCAAGACCGUCAAAUUGCGGGAAAGGGGUCAACAGCCGUUCAGUACCAAGUCUCAGGGGAAACUUUGAGAUGGCCUUGCAAAGGGUAUGGUAAUAAGCUGACGGACAUGGUCCUAACCACGCAGCCAAGUCCUAAGUCAACAGAUCUUCUGUUGAUAUGGAUGCAGUUCACAGACUAAAUGUCGGUCGGGGAAGAUGUAUUCUUCUCAUAAGAUAUAGUCGGACCUCUCCUUAAUGGGAGCUAGCGGAUGAAGUGAUGCAACACUGGAGCCGCUGGGAACUAAUUUGUAUGCGAAAGUAUAUUGAUUAGUUUUGGAGUACUCGUGGUCG
How it was run: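 A randomised library covering all eight P1ex-region intron nucleotides was built with the intron in the knt kanamycin-resistance gene on pET-22b(+) and held in E. coli BL21(DE3). Cells were grown overnight at 37°C or 30°C on LB agar, with or without 25 μg/mL kanamycin, plus 100 μg/mL carbenicillin, 50 μM IPTG and 0.2% rhamnose, and pooled colonies were amplicon-sequenced on an Illumina HiSeq 2500. DiMSum fitness is the error-weighted combination of wild-type-normalised replicate fold changes, kanamycin versus none.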

With UCUAAGCAAUAUUACGUCUC the “self-splicing fitness (ln)” value (37 °C) was -3.38 ± 0.4.

With UGAUAGCAAUAUUACGACCC the “self-splicing fitness (ln)” value (30 °C) was -0.747 ± 0.54 and the “self-splicing fitness (ln)” value (37 °C) was -0.73 ± 1.

With CCGGAGCAAUAUUACGAAUU the “self-splicing fitness (ln)” value (30 °C) was -4.46 ± 0.51.

In the case of CAACAGCAAUAUUACGUGGA, the “self-splicing fitness (ln)” value (30 °C) is reported as -3.08 ± 0.13 and the “self-splicing fitness (ln)” value (37 °C) is reported as -2.08 ± 0.096.

For GCGGAGCAAUAUUACGCCGC, the “self-splicing fitness (ln)” value (37 °C) was -0.693 ± 1.4.

For GAAGAGCAAUAUUACGCUGC, the “self-splicing fitness (ln)” value (30 °C) was -5.06 ± 0.58 and the “self-splicing fitness (ln)” value (37 °C) was -2.63 ± 0.48.

In the case of UCGUAGCAAUAUUACGCCAU, the “self-splicing fitness (ln)” value (30 °C) is reported as -0.86 ± 0.63.

For UCUAAGCAAUAUUACGCCUA, the “self-splicing fitness (ln)” value (30 °C) was -4.34 ± 0.59.

In the case of UAUCAGCAAUAUUACGAGGC, the “self-splicing fitness (ln)” value (30 °C) is reported as -3.47 ± 0.52.

For ACAAAGCAAUAUUACGAUGC, the “self-splicing fitness (ln)” value (30 °C) was -1.61 ± 0.11 and the “self-splicing fitness (ln)” value (37 °C) was -1.9 ± 0.15.

With ACAGAGCAAUAUUACGAGCC the “self-splicing fitness (ln)” value (30 °C) was -3.51 ± 1.

In the case of AAUGAGCAAUAUUACGCGAC, the “self-splicing fitness (ln)” value (30 °C) is reported as -4.1 ± 1.

With UAUGAGCAAUAUUACGACAG the “self-splicing fitness (ln)” value (30 °C) was -3.6 ± 0.53.

For CUGUAGCAAUAUUACGCCCU, the “self-splicing fitness (ln)” value (30 °C) was -2.42 ± 1.2 and the “self-splicing fitness (ln)” value (37 °C) was 0.000402 ± 1.2.

For GCCGAGCAAUAUUACGUCAC, the “self-splicing fitness (ln)” value (30 °C) was -3.52 ± 1.1.

For UACCAGCAAUAUUACGCAUU, the “self-splicing fitness (ln)” value (30 °C) was -2.42 ± 0.092 and the “self-splicing fitness (ln)” value (37 °C) was -0.373 ± 0.078.

For UGGAAGCAAUAUUACGGAAC, the “self-splicing fitness (ln)” value (30 °C) was -1.67 ± 0.91 and the “self-splicing fitness (ln)” value (37 °C) was 0.454 ± 0.58.

With GCUCAGCAAUAUUACGGUAA the “self-splicing fitness (ln)” value (30 °C) was -1.52 ± 0.13 and the “self-splicing fitness (ln)” value (37 °C) was -0.551 ± 0.11.

For GAAUAGCAAUAUUACGACGC, the “self-splicing fitness (ln)” value (30 °C) was 0.293 ± 0.13 and the “self-splicing fitness (ln)” value (37 °C) was -0.0831 ± 0.16.

In the case of CACGAGCAAUAUUACGGAUC, the “self-splicing fitness (ln)” value (30 °C) is reported as -4.07 ± 0.51.

With CUUAAGCAAUAUUACGUCGC the “self-splicing fitness (ln)” value (30 °C) was -5.15 ± 0.51.

In the case of UGCUAGCAAUAUUACGCCAG, the “self-splicing fitness (ln)” value (30 °C) is reported as -3.41 ± 0.56.

In the case of CGGUAGCAAUAUUACGGGCG, the “self-splicing fitness (ln)” value (30 °C) is reported as -0.838 ± 0.12 and the “self-splicing fitness (ln)” value (37 °C) is reported as 0.0595 ± 0.14.

With GUGGAGCAAUAUUACGGAGA the “self-splicing fitness (ln)” value (37 °C) was -2.35 ± 0.76.

For CAUUAGCAAUAUUACGGCAU, the “self-splicing fitness (ln)” value (30 °C) was -2.99 ± 0.21 and the “self-splicing fitness (ln)” value (37 °C) was -1.66 ± 0.17.

In the case of ACCAAGCAAUAUUACGUCGC, the “self-splicing fitness (ln)” value (30 °C) is reported as -3.25 ± 0.19 and the “self-splicing fitness (ln)” value (37 °C) is reported as -1.27 ± 0.14.

In the case of CAGAAGCAAUAUUACGAGGC, the “self-splicing fitness (ln)” value (30 °C) is reported as -4.65 ± 0.51.

In the case of CCGAAGCAAUAUUACGAUUC, the “self-splicing fitness (ln)” value (30 °C) is reported as -4.08 ± 0.52.

For CAAUAGCAAUAUUACGCGGC, the “self-splicing fitness (ln)” value (37 °C) was -3.8 ± 0.73.

In the case of AUUGAGCAAUAUUACGGGGU, the “self-splicing fitness (ln)” value (30 °C) is reported as -3.33 ± 0.25 and the “self-splicing fitness (ln)” value (37 °C) is reported as -3.44 ± 0.27.

For UAUUAGCAAUAUUACGGGCC, the “self-splicing fitness (ln)” value (37 °C) was -1.56 ± 0.52.

For CCUGAGCAAUAUUACGAGUC, the “self-splicing fitness (ln)” value (30 °C) was -3.31 ± 0.52.

With UCACAGCAAUAUUACGAAGC the “self-splicing fitness (ln)” value (37 °C) was -4.46 ± 0.51.

In the case of GGAGAGCAAUAUUACGCCGU, the “self-splicing fitness (ln)” value (30 °C) is reported as -4.31 ± 1 and the “self-splicing fitness (ln)” value (37 °C) is reported as -0.92 ± 0.61.

With GACGAGCAAUAUUACGUCAG the “self-splicing fitness (ln)” value (30 °C) was -4.43 ± 0.52.

In the case of GCUUAGCAAUAUUACGGAGA, the “self-splicing fitness (ln)” value (30 °C) is reported as -2.02 ± 0.14 and the “self-splicing fitness (ln)” value (37 °C) is reported as -0.596 ± 0.12.

In the case of CCGGAGCAAUAUUACGAAAA, the “self-splicing fitness (ln)” value (30 °C) is reported as -3.6 ± 0.75.

In the case of CAGUAGCAAUAUUACGAUAA, the “self-splicing fitness (ln)” value (37 °C) is reported as -3.58 ± 0.59.

For GAUUAGCAAUAUUACGAGAC, the “self-splicing fitness (ln)” value (30 °C) was -1.51 ± 0.3 and the “self-splicing fitness (ln)” value (37 °C) was -1.1 ± 0.22.

For UGAAAGCAAUAUUACGCUGC, the “self-splicing fitness (ln)” value (30 °C) was -3.52 ± 0.52 and the “self-splicing fitness (ln)” value (37 °C) was -2.92 ± 0.75.

For UGUAAGCAAUAUUACGGCCC, the “self-splicing fitness (ln)” value (37 °C) was 0.868 ± 0.58.

In the case of UUCUAGCAAUAUUACGUCGC, the “self-splicing fitness (ln)” value (37 °C) is reported as -3.11 ± 0.61.

In the case of CUUCAGCAAUAUUACGAAAC, the “self-splicing fitness (ln)” value (37 °C) is reported as -2.51 ± 0.55.

With CACAAGCAAUAUUACGCAUG the “self-splicing fitness (ln)” value (30 °C) was -3.79 ± 0.18 and the “self-splicing fitness (ln)” value (37 °C) was -2.52 ± 0.13.

With UCUUAGCAAUAUUACGCGAA the “self-splicing fitness (ln)” value (30 °C) was -2.63 ± 0.5 and the “self-splicing fitness (ln)” value (37 °C) was -1.19 ± 0.3.

With UCUCAGCAAUAUUACGCCGA the “self-splicing fitness (ln)” value (30 °C) was -4.4 ± 0.73.

With CCUUAGCAAUAUUACGAAUU the “self-splicing fitness (ln)” value (30 °C) was -5.01 ± 0.72.

For GAUAAGCAAUAUUACGCUCC, the “self-splicing fitness (ln)” value (37 °C) was -2.19 ± 0.56.

With AUGCAGCAAUAUUACGCAGC the “self-splicing fitness (ln)” value (30 °C) was -2.54 ± 0.59.

For GGAGAGCAAUAUUACGCGGG, the “self-splicing fitness (ln)” value (37 °C) was -1.24 ± 0.52.

In the case of AGAGAGCAAUAUUACGACAA, the “self-splicing fitness (ln)” value (30 °C) is reported as -2.02 ± 1.2.

In the case of UGCGAGCAAUAUUACGGCAU, the “self-splicing fitness (ln)” value (37 °C) is reported as -2.77 ± 0.61.

With UCUAAGCAAUAUUACGCUUG the “self-splicing fitness (ln)” value (30 °C) was -4.37 ± 0.59.

With UCGCAGCAAUAUUACGUUGC the “self-splicing fitness (ln)” value (30 °C) was -4.38 ± 0.52.

In the case of AUCUAGCAAUAUUACGAAAA, the “self-splicing fitness (ln)” value (30 °C) is reported as -2.17 ± 0.69.

For UAACAGCAAUAUUACGGUCG, the “self-splicing fitness (ln)” value (30 °C) was -0.363 ± 0.04 and the “self-splicing fitness (ln)” value (37 °C) was -0.0859 ± 0.056.

With UAUAAGCAAUAUUACGCCGC the “self-splicing fitness (ln)” value (30 °C) was -1.83 ± 0.54 and the “self-splicing fitness (ln)” value (37 °C) was -3.2 ± 0.73.

With CCUUAGCAAUAUUACGGCCC the “self-splicing fitness (ln)” value (30 °C) was -2.77 ± 1.1 and the “self-splicing fitness (ln)” value (37 °C) was -1.37 ± 1.2.

In the case of CUCGAGCAAUAUUACGCGUC, the “self-splicing fitness (ln)” value (30 °C) is reported as -3.93 ± 0.59.

With UCGGAGCAAUAUUACGAAAA the “self-splicing fitness (ln)” value (30 °C) was -2.27 ± 0.72 and the “self-splicing fitness (ln)” value (37 °C) was -2.23 ± 0.8.

Source: the supplement of paper PMC7877785
